31 targets from the supplement of paper PMC12819154, “High-throughput peptide-centric local stability assay extends protein–ligand identification to membrane proteins, tissues and bacteria” (Nature Structural & Molecular Biology, 2025) can be followed below.

Protein sequences, listed by entry. Tags and fused reporters are not part of them. Lines headed by an entry give the natural chain unless they say otherwise; changes in a name come on top.
UniProt Q99JY4: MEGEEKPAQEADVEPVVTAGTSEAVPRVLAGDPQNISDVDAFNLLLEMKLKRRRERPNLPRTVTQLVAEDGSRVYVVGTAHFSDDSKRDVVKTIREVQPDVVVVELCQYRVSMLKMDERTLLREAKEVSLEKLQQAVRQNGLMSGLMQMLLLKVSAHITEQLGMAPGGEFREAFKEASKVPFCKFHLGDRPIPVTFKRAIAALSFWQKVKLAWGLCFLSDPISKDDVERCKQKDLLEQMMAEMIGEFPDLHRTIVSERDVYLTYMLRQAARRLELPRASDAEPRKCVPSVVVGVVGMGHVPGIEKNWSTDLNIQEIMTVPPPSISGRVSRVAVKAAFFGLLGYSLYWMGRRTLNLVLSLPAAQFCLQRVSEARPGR
UniProt Q920G8: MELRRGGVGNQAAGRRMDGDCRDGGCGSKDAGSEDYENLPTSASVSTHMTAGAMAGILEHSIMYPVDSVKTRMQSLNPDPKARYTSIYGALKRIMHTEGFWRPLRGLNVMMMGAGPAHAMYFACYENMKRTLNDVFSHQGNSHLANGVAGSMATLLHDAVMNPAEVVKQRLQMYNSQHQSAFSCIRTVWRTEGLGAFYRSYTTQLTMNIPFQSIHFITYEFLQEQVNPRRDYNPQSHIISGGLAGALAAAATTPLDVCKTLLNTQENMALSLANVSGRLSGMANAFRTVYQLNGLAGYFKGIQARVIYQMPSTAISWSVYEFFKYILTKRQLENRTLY
UniProt Q921G7: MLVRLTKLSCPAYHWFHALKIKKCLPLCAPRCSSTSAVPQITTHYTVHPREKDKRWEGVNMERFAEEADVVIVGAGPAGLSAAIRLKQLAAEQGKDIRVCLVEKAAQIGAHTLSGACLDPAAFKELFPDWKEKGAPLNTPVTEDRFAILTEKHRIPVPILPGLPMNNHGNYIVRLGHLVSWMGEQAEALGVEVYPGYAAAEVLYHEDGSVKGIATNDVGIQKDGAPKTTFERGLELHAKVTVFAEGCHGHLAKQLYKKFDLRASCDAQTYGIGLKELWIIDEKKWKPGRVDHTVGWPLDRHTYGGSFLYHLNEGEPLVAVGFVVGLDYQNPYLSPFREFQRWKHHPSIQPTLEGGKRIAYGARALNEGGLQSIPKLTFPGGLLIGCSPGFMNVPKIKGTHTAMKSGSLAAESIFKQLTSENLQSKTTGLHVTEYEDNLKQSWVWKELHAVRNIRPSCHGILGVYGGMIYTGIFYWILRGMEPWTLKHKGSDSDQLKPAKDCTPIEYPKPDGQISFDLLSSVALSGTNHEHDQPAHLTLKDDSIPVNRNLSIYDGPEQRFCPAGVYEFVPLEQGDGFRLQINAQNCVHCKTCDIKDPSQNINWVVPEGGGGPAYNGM
UniProt Q922B9: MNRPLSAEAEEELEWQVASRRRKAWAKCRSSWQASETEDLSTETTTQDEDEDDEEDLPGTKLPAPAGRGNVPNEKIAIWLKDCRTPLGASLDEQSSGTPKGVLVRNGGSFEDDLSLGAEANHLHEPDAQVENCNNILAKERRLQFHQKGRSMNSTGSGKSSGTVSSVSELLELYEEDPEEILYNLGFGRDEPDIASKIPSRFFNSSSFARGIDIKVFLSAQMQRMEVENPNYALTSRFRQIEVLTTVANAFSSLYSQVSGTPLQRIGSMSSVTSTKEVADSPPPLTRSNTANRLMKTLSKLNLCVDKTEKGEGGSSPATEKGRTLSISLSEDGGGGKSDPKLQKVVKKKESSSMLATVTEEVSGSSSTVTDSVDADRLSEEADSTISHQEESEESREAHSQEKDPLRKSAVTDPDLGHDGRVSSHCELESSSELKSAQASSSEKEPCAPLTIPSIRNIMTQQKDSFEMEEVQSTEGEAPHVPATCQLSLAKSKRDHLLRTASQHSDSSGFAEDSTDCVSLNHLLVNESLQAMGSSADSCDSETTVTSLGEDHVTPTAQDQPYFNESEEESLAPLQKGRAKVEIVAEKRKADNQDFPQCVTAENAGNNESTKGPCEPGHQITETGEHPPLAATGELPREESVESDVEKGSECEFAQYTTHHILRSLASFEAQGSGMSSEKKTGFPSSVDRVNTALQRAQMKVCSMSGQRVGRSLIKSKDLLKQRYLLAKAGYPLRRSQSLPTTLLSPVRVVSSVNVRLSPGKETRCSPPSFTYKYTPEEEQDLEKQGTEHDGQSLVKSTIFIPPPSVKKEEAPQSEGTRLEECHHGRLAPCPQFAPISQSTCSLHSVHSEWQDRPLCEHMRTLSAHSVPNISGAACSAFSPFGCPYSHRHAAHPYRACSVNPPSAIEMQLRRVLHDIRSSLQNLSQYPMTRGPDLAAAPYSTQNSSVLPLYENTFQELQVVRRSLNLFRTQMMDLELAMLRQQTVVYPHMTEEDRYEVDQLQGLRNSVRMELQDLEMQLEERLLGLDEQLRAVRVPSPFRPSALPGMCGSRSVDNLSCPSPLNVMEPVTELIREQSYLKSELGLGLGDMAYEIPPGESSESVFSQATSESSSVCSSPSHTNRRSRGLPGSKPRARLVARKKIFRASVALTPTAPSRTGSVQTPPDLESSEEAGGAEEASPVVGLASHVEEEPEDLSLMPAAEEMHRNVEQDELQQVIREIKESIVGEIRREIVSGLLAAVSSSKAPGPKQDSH
UniProt Q99J31: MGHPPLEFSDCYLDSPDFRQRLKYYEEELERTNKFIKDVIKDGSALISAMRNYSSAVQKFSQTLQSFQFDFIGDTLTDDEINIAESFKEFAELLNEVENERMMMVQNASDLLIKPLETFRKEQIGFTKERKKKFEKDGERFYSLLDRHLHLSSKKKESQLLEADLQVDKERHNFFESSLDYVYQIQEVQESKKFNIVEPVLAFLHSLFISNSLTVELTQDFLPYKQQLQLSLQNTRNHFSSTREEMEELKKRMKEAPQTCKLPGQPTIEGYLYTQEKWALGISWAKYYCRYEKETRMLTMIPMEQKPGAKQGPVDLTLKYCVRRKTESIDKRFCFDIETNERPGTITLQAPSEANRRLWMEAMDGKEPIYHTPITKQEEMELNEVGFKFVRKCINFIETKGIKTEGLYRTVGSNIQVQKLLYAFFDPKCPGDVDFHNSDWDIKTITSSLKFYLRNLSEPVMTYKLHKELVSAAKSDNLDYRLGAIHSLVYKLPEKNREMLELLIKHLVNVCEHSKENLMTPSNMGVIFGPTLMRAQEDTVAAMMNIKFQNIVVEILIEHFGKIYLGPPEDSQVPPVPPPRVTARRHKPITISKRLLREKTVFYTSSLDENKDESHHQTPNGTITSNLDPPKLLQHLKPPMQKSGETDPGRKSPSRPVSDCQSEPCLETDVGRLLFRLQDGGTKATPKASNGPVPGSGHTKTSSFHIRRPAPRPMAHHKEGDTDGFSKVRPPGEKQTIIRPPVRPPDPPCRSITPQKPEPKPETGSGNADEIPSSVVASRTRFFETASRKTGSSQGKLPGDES
UniProt Q99LG0, whole entry: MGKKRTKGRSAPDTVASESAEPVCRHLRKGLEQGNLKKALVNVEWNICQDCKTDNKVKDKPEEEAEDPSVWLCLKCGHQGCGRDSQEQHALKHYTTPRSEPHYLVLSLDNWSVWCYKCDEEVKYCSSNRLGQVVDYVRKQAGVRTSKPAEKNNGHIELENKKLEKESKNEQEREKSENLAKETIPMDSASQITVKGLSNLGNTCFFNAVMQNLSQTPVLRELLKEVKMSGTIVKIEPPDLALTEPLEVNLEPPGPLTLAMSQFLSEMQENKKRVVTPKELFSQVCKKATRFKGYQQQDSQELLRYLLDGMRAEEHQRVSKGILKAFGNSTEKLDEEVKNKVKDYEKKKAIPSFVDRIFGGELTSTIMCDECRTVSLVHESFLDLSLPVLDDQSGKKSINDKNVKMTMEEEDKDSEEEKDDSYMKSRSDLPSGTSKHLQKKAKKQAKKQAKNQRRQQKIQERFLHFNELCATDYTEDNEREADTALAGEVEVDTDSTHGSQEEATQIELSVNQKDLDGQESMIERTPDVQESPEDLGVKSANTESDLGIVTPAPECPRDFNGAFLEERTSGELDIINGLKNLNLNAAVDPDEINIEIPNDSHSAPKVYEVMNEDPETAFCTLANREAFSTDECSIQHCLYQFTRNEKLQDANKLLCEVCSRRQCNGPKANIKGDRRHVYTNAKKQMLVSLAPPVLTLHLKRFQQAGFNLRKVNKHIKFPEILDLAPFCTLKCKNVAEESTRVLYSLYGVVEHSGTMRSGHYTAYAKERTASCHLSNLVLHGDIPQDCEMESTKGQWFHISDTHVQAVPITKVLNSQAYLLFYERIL
UniProt Q99L27: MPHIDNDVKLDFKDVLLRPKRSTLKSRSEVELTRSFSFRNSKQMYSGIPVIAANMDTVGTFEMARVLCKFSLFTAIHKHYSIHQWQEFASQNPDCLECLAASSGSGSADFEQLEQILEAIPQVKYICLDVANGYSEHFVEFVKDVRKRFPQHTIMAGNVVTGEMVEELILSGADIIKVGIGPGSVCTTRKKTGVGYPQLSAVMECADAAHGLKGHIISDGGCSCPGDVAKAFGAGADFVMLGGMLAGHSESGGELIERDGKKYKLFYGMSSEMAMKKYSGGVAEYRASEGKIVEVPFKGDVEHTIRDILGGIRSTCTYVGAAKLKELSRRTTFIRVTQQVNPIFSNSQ
UniProt Q99J23: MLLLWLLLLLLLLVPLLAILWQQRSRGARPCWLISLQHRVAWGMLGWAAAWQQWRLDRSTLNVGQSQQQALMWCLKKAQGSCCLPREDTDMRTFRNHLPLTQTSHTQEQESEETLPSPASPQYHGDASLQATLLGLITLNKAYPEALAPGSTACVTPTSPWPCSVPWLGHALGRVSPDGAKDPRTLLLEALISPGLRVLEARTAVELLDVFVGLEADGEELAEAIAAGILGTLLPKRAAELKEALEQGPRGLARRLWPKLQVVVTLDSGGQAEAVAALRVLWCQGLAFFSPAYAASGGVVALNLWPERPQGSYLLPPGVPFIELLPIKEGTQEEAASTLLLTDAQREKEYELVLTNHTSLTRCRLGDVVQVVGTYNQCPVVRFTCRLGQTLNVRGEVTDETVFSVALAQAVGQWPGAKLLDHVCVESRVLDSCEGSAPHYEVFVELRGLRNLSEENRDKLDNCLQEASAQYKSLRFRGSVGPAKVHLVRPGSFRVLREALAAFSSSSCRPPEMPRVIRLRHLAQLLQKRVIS
UniProt Q922M3: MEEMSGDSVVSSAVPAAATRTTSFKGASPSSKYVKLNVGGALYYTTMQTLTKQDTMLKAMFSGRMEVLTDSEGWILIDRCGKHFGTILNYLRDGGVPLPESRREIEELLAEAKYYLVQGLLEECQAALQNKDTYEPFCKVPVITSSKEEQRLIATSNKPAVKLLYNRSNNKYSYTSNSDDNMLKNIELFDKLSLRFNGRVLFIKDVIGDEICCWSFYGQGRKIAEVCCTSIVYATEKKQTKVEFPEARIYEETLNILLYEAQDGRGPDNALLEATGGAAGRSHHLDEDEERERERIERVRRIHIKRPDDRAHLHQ
UniProt Q99J78: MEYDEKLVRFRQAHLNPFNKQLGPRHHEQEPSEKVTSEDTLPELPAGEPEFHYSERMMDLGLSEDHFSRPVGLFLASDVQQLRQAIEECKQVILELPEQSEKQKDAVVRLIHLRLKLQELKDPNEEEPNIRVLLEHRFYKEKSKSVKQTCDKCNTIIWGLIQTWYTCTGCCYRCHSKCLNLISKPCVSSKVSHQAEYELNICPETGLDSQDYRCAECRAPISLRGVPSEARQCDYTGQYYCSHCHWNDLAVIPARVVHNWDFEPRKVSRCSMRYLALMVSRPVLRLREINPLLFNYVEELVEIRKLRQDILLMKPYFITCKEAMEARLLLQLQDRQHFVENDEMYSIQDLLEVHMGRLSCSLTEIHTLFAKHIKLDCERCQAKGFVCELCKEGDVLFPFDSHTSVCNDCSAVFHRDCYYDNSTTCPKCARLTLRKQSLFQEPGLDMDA
UniProt Q99KU0: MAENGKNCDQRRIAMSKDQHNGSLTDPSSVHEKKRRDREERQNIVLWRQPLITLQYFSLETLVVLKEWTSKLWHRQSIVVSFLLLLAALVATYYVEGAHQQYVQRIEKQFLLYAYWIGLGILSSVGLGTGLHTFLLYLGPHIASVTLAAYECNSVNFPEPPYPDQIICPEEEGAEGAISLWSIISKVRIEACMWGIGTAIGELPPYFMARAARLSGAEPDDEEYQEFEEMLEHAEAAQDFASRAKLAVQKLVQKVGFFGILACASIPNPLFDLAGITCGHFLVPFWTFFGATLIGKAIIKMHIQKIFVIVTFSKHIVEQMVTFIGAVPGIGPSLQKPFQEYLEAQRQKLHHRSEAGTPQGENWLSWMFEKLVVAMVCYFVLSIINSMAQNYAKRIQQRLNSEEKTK
UniProt Q99LD8: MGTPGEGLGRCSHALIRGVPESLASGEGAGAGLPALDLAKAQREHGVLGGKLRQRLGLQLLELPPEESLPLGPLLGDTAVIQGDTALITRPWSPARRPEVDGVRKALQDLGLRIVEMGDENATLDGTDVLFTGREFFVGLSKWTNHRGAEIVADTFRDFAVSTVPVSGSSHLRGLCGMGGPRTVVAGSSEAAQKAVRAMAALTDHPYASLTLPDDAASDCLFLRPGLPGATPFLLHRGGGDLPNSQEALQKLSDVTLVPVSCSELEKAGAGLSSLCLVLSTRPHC

The other results are listed elsewhere or left out. Most values lie at the level of the controls, where differences are scatter.

Compound in the experiment: CN[C@@H]1C[C@H]2O[C@@](C)([C@@H]1OC)n1c3ccccc3c3c4c(c5c6ccccc6n2c5c31)C(=O)NC4 [staurosporine]
Put plainly: log2 fold change of tryptic peptide abundance, ligand vs vehicle (limited proteolysis) (log2 ratio); higher = more trypsin-susceptible (destabilized). Conditions: ligand concentration: 20 uM; sample: mouse liver crude lysate; replicate design: treated separately.
For “UniProt Q99JY4 (peptide sequence: VSAHITEQLGMAPGGEFR, peptide start residue: 154)”, the log2 fold change was -0.19. In the case of “UniProt Q920Q8 (peptide sequence: NFASCMGDSR, peptide start residue: 139)”, the log2 fold change was determined as 0.109.

For the target “UniProt Q920G8 (peptide sequence: MQSLNPDPK, peptide start residue: 73)”, the log2 fold change was -0.559. Turning to “UniProt Q921Z5 (peptide sequence: NLAVQAQK, peptide start residue: 20)”, the log2 fold change is -0.142.

Regarding “UniProt Q921G7 (peptide sequence: HRIPVPILPGLPMNNHGNYIVR, peptide start residue: 153)”, the log2 fold change is -0.105. For the target “UniProt Q922B9 (peptide sequence: GSECEFAQYTTHHILR, peptide start residue: 648)”, the log2 fold change was determined as 1.04. With “UniProt Q99KI0 (peptide sequence: LEAPDADELPR, peptide start residue: 524)”, the log2 fold change is 0.26. To “UniProt Q99L20 (peptide sequence: IFESRPK, peptide start residue: 184)” belongs -0.279; to “UniProt Q99J31 (peptide sequence: QGPVDLTLK, peptide start residue: 311)”, 0.0782. Consider “UniProt Q99JB2 (peptide sequence: ESMQMQVEAERR, peptide start residue: 188)”, for which the log2 fold change was found to be 0.176.

In the case of “UniProt Q99JW4 (peptide sequence: FVEFDMKPVCKK, peptide start residue: 291)”, the log2 fold change is -0.172. With “UniProt Q99LG0 (peptide sequence: SDLPSGTSK, peptide start residue: 427)” the figure was -0.171; with “UniProt Q99L27 (peptide sequence: LDFKDVLLRPK, peptide start residue: 10)”, 0.415; with “UniProt Q99J79 (peptide sequence: SPDVAVLLR, peptide start residue: 12)”, 0.0441. To “UniProt Q99JF5 (peptide sequence: IIQLVHR, peptide start residue: 285)” belongs -0.312.

Consider “UniProt Q921V5 (peptide sequence: KSDALGPPLLDAEPVR, peptide start residue: 33)”, for which the log2 fold change was -0.109. For the target “UniProt Q99J23 (peptide sequence: GARPCWLISLQHR, peptide start residue: 27)”, the log2 fold change came to 0.795. To “UniProt Q924Z6 (peptide sequence: DYHSLKPSATAPQR, peptide start residue: 761)” belongs -0.767; to “UniProt Q99JT9 (peptide sequence: DTLPNYEEK, peptide start residue: 72)”, -0.212; to “UniProt Q921I2 (peptide sequence: TEQHWLK, peptide start residue: 539)”, 0.108.

On to “UniProt Q922M3 (peptide sequence: SHHLDEDEERER, peptide start residue: 282)”, for which the log2 fold change was 0.254.

With “UniProt Q99J78 (peptide sequence: QAIEECK, peptide start residue: 84)”, the log2 fold change is -0.261. Regarding “UniProt Q99KU0 (peptide sequence: IAMSKDQHNGSLTDPSSVHEKK, peptide start residue: 13)”, the log2 fold change was -0.222. On to “UniProt Q99L85 (peptide sequence: ALLHPVPSR, peptide start residue: 266)”, for which the log2 fold change was 0.25. On to “UniProt Q921X9 (peptide sequence: DVVHIDSEKDFRR, peptide start residue: 150)”, for which the log2 fold change is -0.447. Regarding “UniProt Q99LD8 (peptide sequence: TVVAGSSEAAQK, peptide start residue: 183)”, the log2 fold change is -0.728. For “UniProt Q99J36 (peptide sequence: SQFLPAKR, peptide start residue: 20)”, the log2 fold change turned out to be 0.0197. To “UniProt Q925P2 (peptide sequence: DLTEHKPSASNHNLAPSDNSPNK, peptide start residue: 459)” belongs 0.411. On to “UniProt Q921G8 (peptide sequence: YITAQPLAGR, peptide start residue: 232)”, for which the log2 fold change turned out to be 0.161. To “UniProt Q99LD4 (peptide sequence: MALSFVQR, peptide start residue: 61)” belongs -0.262; to “UniProt Q99K99 (peptide sequence: LKGTQNSEVEVPR, peptide start residue: 41)”, -0.16.
